“Also recorded” adds a separate entry of the source. At least one peptide structure holds a part that was inferred or is arguable (an end, a ring closure or a residue). Where a SMILES comes first, the peptide text is derived from it.
Legend:
CHO cell line C [1] = experiment: Fed-batch shake flask production culture in serum-free defined medium: titer, viability, growth, metabolic profiles; type: cell-based, Chinese hamster; conditions: for day 11 titer: culture period 11 days (Example 4, FIG. 5); for titer / viability: shake flask
Method: (§1) Materials and Methods: Dipeptides were purchased from Bachem (Torrance, Calif.). Each dipeptide was dissolved in water for preparation of concentrated stock solution (100 mg/mL), followed by sterile filtration using Spin-X® filter unit (Corning Inc., Corning, N.Y.).
(§2) On Day 0, prior to inoculation of production cell lines, appropriate volumes of concentrated dipeptide stock solution were added to serum-free defined production medium to bring the final dipeptide concentration at 0.5-2.0 g/L. For controls, the same volume of water was added. Cells were inoculated at 5×10^5 cells/mL with the final culture volume of 50 mL in 250 mL flasks. The shaker flasks cultures were grown in the incubator at 36° C., with 5% CO2 and agitation rate of 160 rpm.
(§3) Cultures were fed with bolus defined feed media on Days 3, 6, and 8 with the feed volume of 5-6% on Day 3, 9% on Day 6 and 9% on Day 8. Cultures were stopped and harvested on Day 11. However, if the culture viability on Day 11 was >70%, culture duration was extended beyond day 11 by introducing 4th feed on Day 11 and 5th feed on day 13 if necessary. Feed volume on Day 11 ranged from 5% to 8%, depending on the culture performance. Day 13 feed ranged from 2.5% to 3.0%. Glucose was fed as needed with typical target concentration of 7-8 g/L.
(§4) On selective days during the production run, small volumes of cultures were taken out to assess viable cell density and % viability using the CEDEX cell counter (Roche Innovatis AG). Titer was also determined on collected samples, using the high-throughput HPLC analytical method.
Materials and Methods: CHO cell line C was cultured as in Example 2. The dipeptides tested were Tyr-Lys, Thr-Phe, His-Gly, Tyr-Ala, Gly-His, Tyr-His, Tyr-Val, and a combination of Tyr-His and Thr-Phe. The culture period was 11 days, at which point titer and viability were assessed.
Materials and Methods: CHO cell line C was used for this experiment, and cultured as in Example 2. Titer, viability, viable cell density, specific productivity, and cell diameter were determined each day from day 6 to 13 or 14 of cell culture. Tyr-His dipeptide was tested at 0.5 g/L and 1 g/L, and compared to the addition of no dipeptide.

cell line B = experiment: Fed-batch shake flask production culture in serum-free defined medium: titer and viability; type: cell-based, Chinese hamster; conditions: 1 g/L, combination each dipeptide at 0.5 g/L
[2] = Solubility of tyrosine-containing dipeptides
[3] = tested on: two additional CHO cell lines; experiment: Production culture of two additional CHO cell lines (data not shown); type: cell-based, Chinese hamster
CHO cell line C [4] = experiment: 2-L bioreactor production culture, 15 days: titer, viability, metabolic and amino acid profiles; type: cell-based, Chinese hamster; conditions: for Qp: bioreactor, 0.5 g/L, between Days 14 and 15; for culture viability / titer / specific productivity (Qp): cell line C; for culture viability / titer: 2 liter bioreactor; for titer: 0.5 g/L and 1.0 g/L; for specific productivity (Qp): 2 liter pH-controlled bioreactor
CHO cell line A = experiment: Fed-batch shake flask production culture in serum-free defined medium: titer and viability; type: cell-based, Chinese hamster; conditions: 2 g/L, 1 g/L and 0.5 g/L, day 13 and day 14, vs control
Method: as §1, §2, §3, §4
Materials and Methods: CHO cell line A was cultured as in Example 2. The effect of dipeptide Ala-His (added at 1 g/L) was compared to no added dipeptide (control) and dipeptide His-Gly. The culture period was 13 to 14 days, at which point titer and viability were assessed.

Compound	cell size (CHO cell line C [1]; cell line C, 0.5 g/L and 1 g/L (FIG. 6))	growth (Viable Cell Density and Integrated Cell Density) (CHO cell line C [1]; cell line C, 0.5 g/L and 1 g/L, greater at 1 g/L)	day 11 titer (CHO cell line C [1]; cell line C)	specific productivity (CHO cell line C [1]; cell line C, days 10 to 14, concentration responsive, 0.5 g/L and 1 g/L)	titer (CHO cell line C [1]; cell line C, 0.5 g/L and 1 g/L)	viability (CHO cell line C [1]; cell line C, 0.5 g/L and 1 g/L)	titer improvement (CHO cell line C [1]; serum-free, peptone-free production medium)	titer (cell line B)	viability (cell line B)	Tyr content [2]	titer ([3]; fifth cell line)	viability ([3]; fifth cell line)	titer ([3]; one additional CHO cell line)	viability ([3]; one additional CHO cell line)	Qp (CHO cell line C [4])	culture viability (CHO cell line C [4])	titer (CHO cell line C [4])	specific productivity (Qp) (CHO cell line C [4])	titer (CHO cell line A)	viability (CHO cell line A)
N[C@@H](Cc1ccc(O)cc1)C(=O)N[C@@H](Cc1c[nH]cn1)C(=O)O [Tyr-His] (H-Tyr-His-OH; N-terminus and C-terminus assumed)	increased cell size	suppressed	significantly improved titer	maintained	significantly increased; also recorded: significantly improved	significantly increased; also recorded: significantly improved	approximately 15%	significantly increased	significantly increased	56 g/L	to a lesser extent	to a lesser extent	improved both titer and viability in a similar manner	improved both titer and viability in a similar manner	sharp decline in Qp	improving culture viability	significantly enhanced	significantly enhanced	Significant improvements	Significant improvements
C[C@H](N)C(=O)N[C@@H](Cc1ccc(O)cc1)C(=O)O [Ala-Tyr] (H-Ala-Tyr-OH; N-terminus and C-terminus assumed)	–	–	–	–	–	–	–	–	–	40 g/L	–	–	–	–	–	–	–	–	–	–
NCCCC[C@H](NC(=O)[C@@H](N)Cc1ccc(O)cc1)C(=O)O [Tyr-Lys] (H-Tyr-Lys-OH; N-terminus and C-terminus assumed)	–	–	significantly improved titer	–	significantly increased	significantly increased	–	significantly increased	significantly increased	43 g/L	to a lesser extent	to a lesser extent	improved both titer and viability in a similar manner	improved both titer and viability in a similar manner	sharp decline in Qp	improving culture viability	significantly enhanced	significantly enhanced	Significant improvements	Significant improvements
